In patent EP0534568B1:
No constants are given. Whether binding was seen depends on the method and setting. Some entries that bind do so weakly or less than the wild type.

By UniProt entry, the sequences of proteins in these tests, tags left out. Where a name states a change or a piece, a line headed by the entry shows the natural chain unless it says otherwise. Chains listed by the source or under a name are the forms on record and can include a tag or linker.
hGH mutant Arg134→His (P01241, form named): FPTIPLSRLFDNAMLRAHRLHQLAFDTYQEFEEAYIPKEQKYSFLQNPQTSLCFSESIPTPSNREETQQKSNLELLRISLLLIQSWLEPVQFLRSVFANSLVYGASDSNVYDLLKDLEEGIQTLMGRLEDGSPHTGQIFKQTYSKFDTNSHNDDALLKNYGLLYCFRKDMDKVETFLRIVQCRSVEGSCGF
hGH mutant Arg134→Pro (P01241, form named): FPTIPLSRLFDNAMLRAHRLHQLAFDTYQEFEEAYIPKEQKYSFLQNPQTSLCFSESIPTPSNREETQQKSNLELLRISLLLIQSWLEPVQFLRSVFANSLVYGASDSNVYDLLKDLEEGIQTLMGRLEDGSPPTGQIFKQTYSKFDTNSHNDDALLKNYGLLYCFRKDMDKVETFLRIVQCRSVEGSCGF
hGH mutant Arg134→Ala (P01241, form named): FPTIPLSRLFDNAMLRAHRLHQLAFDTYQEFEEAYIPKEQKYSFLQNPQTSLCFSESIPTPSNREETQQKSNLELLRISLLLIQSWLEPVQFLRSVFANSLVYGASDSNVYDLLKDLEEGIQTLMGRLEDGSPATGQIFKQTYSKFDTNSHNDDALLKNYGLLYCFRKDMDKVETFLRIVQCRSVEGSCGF
hGH mutant Arg134→Thr (P01241, form named): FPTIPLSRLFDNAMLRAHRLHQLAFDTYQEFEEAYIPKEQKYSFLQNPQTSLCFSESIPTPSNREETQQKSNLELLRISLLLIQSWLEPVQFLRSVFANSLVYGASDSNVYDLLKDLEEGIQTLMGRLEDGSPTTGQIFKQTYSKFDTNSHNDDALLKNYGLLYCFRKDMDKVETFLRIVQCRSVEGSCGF
hGH mutant Arg134→Leu (P01241, form named): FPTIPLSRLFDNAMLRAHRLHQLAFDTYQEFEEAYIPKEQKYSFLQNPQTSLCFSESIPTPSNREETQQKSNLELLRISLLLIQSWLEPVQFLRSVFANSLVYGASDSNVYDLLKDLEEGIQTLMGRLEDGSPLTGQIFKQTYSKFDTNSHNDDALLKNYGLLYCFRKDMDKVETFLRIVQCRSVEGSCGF
hGH mutant Arg134→Phe (P01241, form named): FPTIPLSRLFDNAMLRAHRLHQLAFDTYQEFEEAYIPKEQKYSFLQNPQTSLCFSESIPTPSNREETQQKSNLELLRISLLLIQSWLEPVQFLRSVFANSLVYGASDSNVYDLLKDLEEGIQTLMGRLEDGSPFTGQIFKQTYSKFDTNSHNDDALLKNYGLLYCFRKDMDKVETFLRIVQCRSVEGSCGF

Target: T1, growth hormone receptor in microsomal liver membranes of a pregnant rabbit (rabbit) (UniProt P19941)
T1 sequence (looked up): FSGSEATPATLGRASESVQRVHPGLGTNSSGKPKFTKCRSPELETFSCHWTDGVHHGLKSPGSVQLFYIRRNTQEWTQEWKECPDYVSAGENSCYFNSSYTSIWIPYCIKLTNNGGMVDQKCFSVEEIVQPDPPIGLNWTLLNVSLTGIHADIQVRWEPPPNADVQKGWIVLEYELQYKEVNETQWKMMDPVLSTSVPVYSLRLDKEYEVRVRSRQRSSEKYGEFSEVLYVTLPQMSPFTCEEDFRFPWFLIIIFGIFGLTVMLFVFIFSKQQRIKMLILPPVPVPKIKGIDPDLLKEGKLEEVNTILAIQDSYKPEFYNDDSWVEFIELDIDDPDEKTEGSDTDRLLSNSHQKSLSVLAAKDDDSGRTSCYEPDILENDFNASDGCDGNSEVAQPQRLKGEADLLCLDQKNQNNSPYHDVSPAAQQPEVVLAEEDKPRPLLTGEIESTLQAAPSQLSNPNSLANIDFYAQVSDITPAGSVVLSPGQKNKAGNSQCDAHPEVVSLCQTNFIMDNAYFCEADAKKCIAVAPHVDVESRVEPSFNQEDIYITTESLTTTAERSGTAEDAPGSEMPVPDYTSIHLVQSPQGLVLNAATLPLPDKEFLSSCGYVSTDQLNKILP
Assay: in vitro receptor assay (Tsushima and Friesen method)

Substance	binding
hGH mutant Arg134→Pro (from UniProt P01241 27-217) (ligand)	binds
hGH mutant Arg134→Ala (from UniProt P01241 27-217) (ligand)	binds
hGH mutant Arg134→Thr (from UniProt P01241 27-217) (ligand)	binds
hGH mutant Arg134→Phe (from UniProt P01241 27-217) (ligand)	binds

Further lines, results first:

binding	Substance
binds	hGH mutant Arg134→His (from UniProt P01241 27-217) (ligand)
binds	hGH mutant Arg134→Leu (from UniProt P01241 27-217) (ligand)
